Assay results reported in PubChem BioAssay AID2685 (National Center for Advancing Translational Sciences (NCATS), 2010).
The campaign covered roughly 320,000 compounds. About 2,100 (0.66%) were called active. The inconclusive results got no clear call from the source; some entries with a clear call stand among them for comparison. Calls come from the whole dose curve; as a rule, active = well fitted inhibition curve with a large enough effect in the signal ratio, with a control signal flat (not every such curve was filed as active); inconclusive = small, poorly fitted or top-dose-only effect, or effect the other way, or a change in a side signal; inactive = flat fitted curve, though single readings scatter; the % refers to the signal ratio. A potency beside an inconclusive call is a rough fit, not a confirmed value.

Experiment: qHTS Assay for Lipid Storage Modulators in Drosophila S3 Cells
Details: BODIPY lipid droplet fluorescence, 18-24 h, cells fed with added oleic acid; lipid storage change, negative = inhibition: at 46.1 µM (top of the series) unless noted
Method in brief: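 Laser-scanning cytometry quantifies lipid droplet accumulation (500–530 nm total intensity; droplet/cell object ratio) in oleic acid-fed (400 uM added) Drosophila S3 cells treated with a concentration series. 20 uM Triacsin C defined 100% inhibition.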
% is set by controls: 0 for no effect and ±100 for the full control effect; potency is the fitted concentration of half-maximal effect.

SMILES	lipid storage change, negative = inhibition	Potency
CCN(CC)c1ccc2cc(S(=O)(=O)c3ccc(Cl)cc3)c(=O)oc2c1	inconclusive: 6.13%	–
O=C(Nc1cccnc1)c1cc2c(s1)-c1ccccc1OC2	inconclusive: 73.9%	–
O=C(N/N=C/c1coc2ccccc2c1=O)c1cc2ccccc2o1	inconclusive: -2.5%	–
C=CCN(C(=O)c1csnn1)C(C(=O)NC1CCCC1)c1ccccc1 (stereo not drawn)	inactive	–
CCCNC(=O)C1CCN(S(=O)(=O)c2cccs2)CC1	–	inconclusive: 7.31 µM [falling, partial curve]
COc1ccc(-n2ncc3c2CC(C)(C)CC3NC(=O)c2oc(C)cc2C)cc1 (stereo not drawn)	–	inconclusive: 0.326 µM [falling, partial curve, poor fit]
CC(OC(=O)c1ccc(Cl)c([N+](=O)[O-])c1)C(=O)N1CCN(Cc2ccccc2)CC1 (stereo not drawn)	–	inconclusive: 0.092 µM [activator, full curve, poor fit]
Cc1ccccc1N1CCN(C(=O)c2ccccc2NC(=O)C2CC=CCC2C(=O)O)CC1 (stereo not drawn)	inconclusive: 5.97%	–
CCCc1cc(=O)oc2cc(C)cc(OCc3nn[nH]n3)c12	inconclusive: -58.6%	–
Cc1ccc2cc(/C=N/NC(=O)c3ccccc3[N+](=O)[O-])c(Cl)nc2c1	inconclusive: -7.53%	–
CC1CC(C)CN(CCCOc2ccccc2[N+](=O)[O-])C1 (stereo not drawn)	inconclusive: 13.9%	–
O=c1nc(-c2ccccc2)cn[nH]1	inconclusive: -107%	–
CCNC(=S)N(CCO)Cc1cc2cc3c(cc2[nH]c1=O)OCO3	–	inconclusive: 29.1 µM [falling, single point]
C/C(=N\NC(=O)C1CC1(c1ccccc1)c1ccccc1)c1cccc([N+](=O)[O-])c1 (stereo not drawn)	inconclusive: 34%	–
C#CCOCCOCCOCCNc1nc(N2CCN(C(=O)CCCCCCCCCCNC(=O)Cn3cc(C[C@@H](C)O)nn3)CC2)nc(N2CCN(C(=O)CCCCCCCCCCNC(=O)[C@@H]([C@H](C)CC)n3cc(CCCCCN)nn3)CC2)n1	–	inconclusive: 29.1 µM [cytotoxic, single point]
CCOc1cc(CNCc2ccncc2)cc(Cl)c1OC	inconclusive: 25.9%	–
Cc1nc(SCc2ccccc2)[nH]c(=O)c1CC(=O)OCC(C)C	inconclusive: 51.3%	–
CCOc1ccc(NC(=S)NC(=O)c2cccnc2)c([N+](=O)[O-])c1	–	inconclusive: 0.0517 µM [falling, full curve, poor fit]
COc1ccc(CNC(=O)[C@@H](C)NC(=O)[C@@H]2Cc3ccccc3CN2)cc1	inconclusive: -32.3%	–
CC(=O)N1CCN(c2ccc(Oc3nnnn3-c3ccccc3)cc2)CC1	–	inconclusive: 0.0046 µM [activator, full curve, poor fit]
O=C(OCC(=O)N1CCCC1)c1cncc(Br)c1	inconclusive: -22%	–
Cc1ccccc1C(O)c1cccnc1 (stereo not drawn)	inconclusive: -0.0378%	–
CC[n+]1ccc(C(=O)NCc2ccccc2)cc1	inconclusive: 23.4%	–
COCC(=O)N1CCC(n2nnc3cc(F)ccc32)CC1	inconclusive: 1.65%	–

SMILES	lipid storage change, negative = inhibition	Potency
CCOC(=O)C1C(=O)NC(N2CCN(CC)CC2)=NC1c1ccccc1 (stereo not drawn)	inconclusive: -1.15%	–
CN(C)CCCNS(=O)(=O)c1cc(Cl)ccc1Cl	–	inconclusive: 29.1 µM [falling, single point]
O=C1CCCC2=C1C(c1ccco1)Nc1ccc3ccccc3c12 (stereo not drawn)	inconclusive: 17.3%	–
Cc1noc(C)c1S(=O)(=O)N1CCC(C(=O)c2ccccc2)CC1	inconclusive: -30.2%	–
CCN(CC)CCCNC(=O)c1cn(-c2cccc(OC)c2)c(=O)c2ccccc12	inconclusive: 48.9%	–
NNC(=O)Cn1nnc(-c2ccc(C(F)(F)F)cc2)n1	inconclusive: 36.7%	–
O=C(OCc1ccc(O)cc1)c1c(-c2ccsc2)oc2ccc(N3CCOCC3)cc12	inconclusive: 6.1%	–
Cc1cc(Nc2ccc(Cl)cc2)n2ncnc2n1	–	inconclusive: 18.4 µM [falling, single point]
O=c1[nH]cnc(O)c1C(c1ccc2c(c1)OCO2)c1c(O)nc[nH]c1=O	inconclusive: -28.8%	–
O=C(CSc1nnc(CNC(=O)c2cccs2)o1)NCc1ccc(F)cc1	–	inconclusive: 0.82 µM [activator, full curve, poor fit]
COc1ccccc1-n1c(=S)sc2c(=O)n(Cc3ccco3)c(SC)nc21	–	inconclusive: 0.731 µM [activator, full curve]
O=C(O)CCCc1ccc2ccc3cccc4ccc1c2c34	inactive	–
CCCCNC(=O)c1cc2cccc([N+](=O)[O-])c2[nH]1	inconclusive: 19.6%	–
CC1CCCC(NC(=O)COC(=O)c2ccc3ncsc3c2)C1C (stereo not drawn)	inconclusive: -49%	–
COCCn1c(CN(Cc2ccccc2)Cc2ccccc2)nc2c1c(=O)n(C)c(=O)n2C	inconclusive: 3.14%	–
C/C(=N\Nc1ccc(S(=O)(=O)N2CCOCC2)cc1[N+](=O)[O-])C(C)C	inconclusive: -31.2%	–
Cc1ccc(C)c(S(=O)(=O)c2c(N)n(/N=C/c3ccco3)c3nc4ccccc4nc23)c1	–	inconclusive: 0.58 µM [activator, partial curve]
CN(C)S(=O)(=O)c1cccc(NC(=O)COC(=O)c2cc(=O)c3ccccc3o2)c1	inconclusive: -10.2%	–
O=C(O)c1nn(CCSc2ccccc2F)c(=O)c2ccccc12	inconclusive: 20.8%	–
Cn1nc(C(=O)Nc2cccc(C(=O)NC3CC3)c2)c2ccccc2c1=O	inconclusive: -47.4%	–
O=C(OCC1COc2ccccc2O1)c1ccccc1F (stereo not drawn)	–	inconclusive: 0.92 µM [activator, full curve, poor fit]
CCCCc1nnc(SCc2ccc(OCC)cc2)n1N	–	inconclusive: 1.64 µM [falling, full curve]
COc1cccc(NC(=O)N2CCCC2C(=O)NC2CCCCC2)c1 (stereo not drawn)	–	inconclusive: 29.1 µM [activator, single point]
O=C(CN1CCOCC1)Nc1ccc(Cl)cn1	–	inconclusive: 29.1 µM [activator, single point]

Record cards, from the list above. Values in the order: lipid storage change, negative = inhibition	Potency
CCOc1cc(CNCc2ccncc2)cc(Cl)c1OC is listed with inconclusive: 25.9%	–
CCOC(=O)C1C(=O)NC(N2CCN(CC)CC2)=NC1c1ccccc1 (stereo not drawn) is listed with inconclusive: -1.15%	–
C=CCN(C(=O)c1csnn1)C(C(=O)NC1CCCC1)c1ccccc1 (stereo not drawn) is listed with inactive	–
O=C(CSc1nnc(CNC(=O)c2cccs2)o1)NCc1ccc(F)cc1 is listed with –	inconclusive: 0.82 µM [activator, full curve, poor fit]
